Data source: PubChem BioAssay AID1508597 (Cure First, 2020)

Screen: 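Survival screen with siRNA in ovarian cancer cells derived from patients, with or without rucaparib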 (primary screen)
Cell system: human ovarian carcinoma lines grown from tumours: OCI-P5x (papillary serous) and OCI-C5x (clear cell)
Reagent: siRNA pool against human genes, 1.25 pmol siRNA per well
Duration: 72 h or 96 h, depending on the cell culture
Conditions: rucaparib 20 µM (about IC30) or vehicle, present until read-out
Read-out: 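Luminescent ATP-based viability assay read 72 or 96 h after transfection, depending on culture, given as normalised percent viability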
Scale: viability, normalised: higher = more viable cells remaining
Rule for the call: 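a well counts as a hit if its normalised viability is under 80 percent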
Meaning of the calls: active = viability under 80%; inactive = viability 80% or more
The whole screen tested about 2,100 reagents; shown is a part drawn at random. 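Calls flag viability under 80% in either arm, not effects specific to rucaparib; the reference for percent is not stated.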 Not stated in the record: the 100% reference.

The opening 6 entries, ahead of the listing:
no.	Target gene	rucaparib or vehicle	cell line	technical replicate	viability, normalised (%)	Call
1	MTA1	Rucaparib	OCI-C5x (clear cell)	1	26.2	active
2	MTA1	Rucaparib	OCI-C5x (clear cell)	2	35.4	active
3	MTA1	Rucaparib	OCI-C5x (clear cell)	3	38.3	active
4	MTA1	Rucaparib	OCI-P5x (serous)	1	40.1	active
5	MTA1	Rucaparib	OCI-P5x (serous)	2	38.2	active
6	MTA1	Rucaparib	OCI-P5x (serous)	3	40.2	active

Main list, repeating the preview:
no.	Target gene	rucaparib or vehicle	cell line	technical replicate	viability, normalised (%)	Call
1	MTA1	Rucaparib	OCI-C5x (clear cell)	1	26.2	active
2	MTA1	Rucaparib	OCI-C5x (clear cell)	2	35.4	active
3	MTA1	Rucaparib	OCI-C5x (clear cell)	3	38.3	active
4	MTA1	Rucaparib	OCI-P5x (serous)	1	40.1	active
5	MTA1	Rucaparib	OCI-P5x (serous)	2	38.2	active
6	MTA1	Rucaparib	OCI-P5x (serous)	3	40.2	active
7	MTA1	Vehicle	OCI-C5x (clear cell)	1	44.5	active
8	MTA1	Vehicle	OCI-C5x (clear cell)	2	42	active
9	MTA1	Vehicle	OCI-C5x (clear cell)	3	47.2	active
10	MTA1	Vehicle	OCI-P5x (serous)	1	48.2	active
11	MTA1	Vehicle	OCI-P5x (serous)	2	54.5	active
12	MTA1	Vehicle	OCI-P5x (serous)	3	56.7	active
13	PDXK	Rucaparib	OCI-C5x (clear cell)	1	55.8	active
14	PDXK	Rucaparib	OCI-C5x (clear cell)	2	54.1	active
15	PDXK	Rucaparib	OCI-C5x (clear cell)	3	55.8	active
16	PDXK	Rucaparib	OCI-P5x (serous)	1	110	inactive
17	PDXK	Rucaparib	OCI-P5x (serous)	2	102	inactive
18	PDXK	Rucaparib	OCI-P5x (serous)	3	101	inactive
19	PDXK	Vehicle	OCI-C5x (clear cell)	1	54	active
20	PDXK	Vehicle	OCI-C5x (clear cell)	2	52	active
21	PDXK	Vehicle	OCI-C5x (clear cell)	3	72.8	active
22	PDXK	Vehicle	OCI-P5x (serous)	1	104	inactive
23	PDXK	Vehicle	OCI-P5x (serous)	2	86.2	inactive
24	PDXK	Vehicle	OCI-P5x (serous)	3	92.5	inactive
25	MED8	Rucaparib	OCI-C5x (clear cell)	1	48.4	active
26	MED8	Rucaparib	OCI-C5x (clear cell)	2	30.7	active
27	MED8	Rucaparib	OCI-C5x (clear cell)	3	38.6	active
28	MED8	Rucaparib	OCI-P5x (serous)	1	62.5	active
29	MED8	Rucaparib	OCI-P5x (serous)	2	64.6	active
30	MED8	Rucaparib	OCI-P5x (serous)	3	68.5	active
31	MED8	Vehicle	OCI-C5x (clear cell)	1	47.4	active
32	MED8	Vehicle	OCI-C5x (clear cell)	2	45.5	active
33	MED8	Vehicle	OCI-C5x (clear cell)	3	48.2	active
34	MED8	Vehicle	OCI-P5x (serous)	1	80.2	inactive
35	MED8	Vehicle	OCI-P5x (serous)	2	90.8	inactive
36	MED8	Vehicle	OCI-P5x (serous)	3	85.8	inactive
37	DNAJC1	Rucaparib	OCI-C5x (clear cell)	1	57.1	active
38	DNAJC1	Rucaparib	OCI-C5x (clear cell)	2	41.3	active
39	DNAJC1	Rucaparib	OCI-C5x (clear cell)	3	53.7	active
40	DNAJC1	Rucaparib	OCI-P5x (serous)	1	64	active
41	DNAJC1	Rucaparib	OCI-P5x (serous)	2	80.9	inactive
42	DNAJC1	Rucaparib	OCI-P5x (serous)	3	69.7	active
43	DNAJC1	Vehicle	OCI-C5x (clear cell)	1	45.8	active
44	DNAJC1	Vehicle	OCI-C5x (clear cell)	2	44.3	active
45	DNAJC1	Vehicle	OCI-C5x (clear cell)	3	37.5	active
46	DNAJC1	Vehicle	OCI-P5x (serous)	1	52	active
47	DNAJC1	Vehicle	OCI-P5x (serous)	2	54.3	active
48	DNAJC1	Vehicle	OCI-P5x (serous)	3	60.3	active
